Laboratory results taken from the supplement of paper PMC6411743.
± gives the standard deviation of the averaged measurements. The list shows a part of the results.

The chains behind the UniProt entries cited, without tags or fusion partners. Where a name states a change or a piece, a line headed by the entry shows the natural chain unless it says otherwise.
UniProt P25490, whole entry: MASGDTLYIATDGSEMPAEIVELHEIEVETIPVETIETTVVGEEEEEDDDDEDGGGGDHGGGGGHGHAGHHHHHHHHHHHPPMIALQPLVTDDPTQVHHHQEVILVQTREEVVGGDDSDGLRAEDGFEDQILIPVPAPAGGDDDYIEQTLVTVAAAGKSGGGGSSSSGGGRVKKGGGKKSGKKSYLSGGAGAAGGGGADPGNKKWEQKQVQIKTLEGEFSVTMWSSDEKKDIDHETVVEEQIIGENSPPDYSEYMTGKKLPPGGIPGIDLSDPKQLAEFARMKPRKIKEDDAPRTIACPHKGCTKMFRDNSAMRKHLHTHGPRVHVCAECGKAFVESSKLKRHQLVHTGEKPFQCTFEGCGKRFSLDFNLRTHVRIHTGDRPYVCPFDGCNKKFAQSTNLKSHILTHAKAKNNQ
UniProt P17858: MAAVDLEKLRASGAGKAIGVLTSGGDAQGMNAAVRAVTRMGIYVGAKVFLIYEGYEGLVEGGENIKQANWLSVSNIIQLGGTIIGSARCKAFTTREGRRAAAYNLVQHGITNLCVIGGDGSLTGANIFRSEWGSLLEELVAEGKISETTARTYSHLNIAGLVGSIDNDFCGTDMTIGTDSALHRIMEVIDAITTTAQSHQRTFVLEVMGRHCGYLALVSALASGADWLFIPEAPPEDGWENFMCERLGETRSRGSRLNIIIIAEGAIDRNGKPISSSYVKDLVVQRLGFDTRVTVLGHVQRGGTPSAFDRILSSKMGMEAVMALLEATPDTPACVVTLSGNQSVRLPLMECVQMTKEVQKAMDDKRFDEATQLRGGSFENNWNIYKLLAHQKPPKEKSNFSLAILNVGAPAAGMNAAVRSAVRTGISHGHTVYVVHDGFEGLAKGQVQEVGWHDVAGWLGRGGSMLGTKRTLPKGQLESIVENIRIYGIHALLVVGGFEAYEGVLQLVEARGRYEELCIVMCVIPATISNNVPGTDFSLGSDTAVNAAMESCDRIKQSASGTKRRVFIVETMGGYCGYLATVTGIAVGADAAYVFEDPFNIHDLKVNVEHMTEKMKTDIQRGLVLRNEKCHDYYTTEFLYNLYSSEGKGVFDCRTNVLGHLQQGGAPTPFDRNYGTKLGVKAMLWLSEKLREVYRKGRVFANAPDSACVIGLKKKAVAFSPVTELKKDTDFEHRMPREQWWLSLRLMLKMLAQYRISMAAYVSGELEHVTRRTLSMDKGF
UniProt P11908: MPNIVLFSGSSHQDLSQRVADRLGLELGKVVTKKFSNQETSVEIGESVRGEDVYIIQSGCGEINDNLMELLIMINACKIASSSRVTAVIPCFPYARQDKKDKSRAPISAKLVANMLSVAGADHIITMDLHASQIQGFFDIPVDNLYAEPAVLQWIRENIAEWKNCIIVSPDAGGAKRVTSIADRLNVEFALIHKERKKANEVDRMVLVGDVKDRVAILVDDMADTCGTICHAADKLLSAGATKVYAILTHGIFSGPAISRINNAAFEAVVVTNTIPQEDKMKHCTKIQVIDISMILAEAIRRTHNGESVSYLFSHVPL
UniProt P18859: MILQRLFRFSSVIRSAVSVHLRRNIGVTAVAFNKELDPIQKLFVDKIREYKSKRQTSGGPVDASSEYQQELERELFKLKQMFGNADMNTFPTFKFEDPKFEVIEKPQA
UniProt P17026: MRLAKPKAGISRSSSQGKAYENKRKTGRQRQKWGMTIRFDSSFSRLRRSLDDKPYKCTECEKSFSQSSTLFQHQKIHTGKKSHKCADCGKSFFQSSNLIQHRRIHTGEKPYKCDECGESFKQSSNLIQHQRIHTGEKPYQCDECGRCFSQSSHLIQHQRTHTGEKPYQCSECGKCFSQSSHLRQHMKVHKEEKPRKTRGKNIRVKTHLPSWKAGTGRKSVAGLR
UniProt P24534: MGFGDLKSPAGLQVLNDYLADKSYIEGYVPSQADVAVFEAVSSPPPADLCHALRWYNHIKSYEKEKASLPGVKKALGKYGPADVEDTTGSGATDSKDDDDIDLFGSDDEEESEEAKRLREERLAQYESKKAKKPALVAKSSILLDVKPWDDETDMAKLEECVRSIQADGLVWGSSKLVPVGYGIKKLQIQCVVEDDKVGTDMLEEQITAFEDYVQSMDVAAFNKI
UniProt P20340: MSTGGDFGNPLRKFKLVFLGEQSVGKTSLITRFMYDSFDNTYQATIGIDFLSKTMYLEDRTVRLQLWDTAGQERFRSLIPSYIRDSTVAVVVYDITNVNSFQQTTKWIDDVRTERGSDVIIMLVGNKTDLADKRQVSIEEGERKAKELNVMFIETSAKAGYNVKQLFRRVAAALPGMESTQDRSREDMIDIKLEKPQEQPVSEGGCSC
UniProt P12081: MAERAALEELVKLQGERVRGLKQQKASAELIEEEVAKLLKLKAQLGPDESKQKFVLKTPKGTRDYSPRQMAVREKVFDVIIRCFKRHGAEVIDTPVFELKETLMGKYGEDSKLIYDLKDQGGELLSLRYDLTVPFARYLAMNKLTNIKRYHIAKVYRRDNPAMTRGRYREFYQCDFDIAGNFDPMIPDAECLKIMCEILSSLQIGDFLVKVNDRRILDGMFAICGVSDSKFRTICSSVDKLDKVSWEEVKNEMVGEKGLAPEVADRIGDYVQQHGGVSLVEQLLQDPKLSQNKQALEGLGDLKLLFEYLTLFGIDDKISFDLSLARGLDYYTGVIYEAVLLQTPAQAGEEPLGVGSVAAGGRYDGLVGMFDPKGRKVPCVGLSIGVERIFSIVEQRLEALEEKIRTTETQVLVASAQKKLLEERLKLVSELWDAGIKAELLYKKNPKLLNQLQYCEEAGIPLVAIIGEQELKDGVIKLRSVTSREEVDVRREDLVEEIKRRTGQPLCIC
UniProt P08243: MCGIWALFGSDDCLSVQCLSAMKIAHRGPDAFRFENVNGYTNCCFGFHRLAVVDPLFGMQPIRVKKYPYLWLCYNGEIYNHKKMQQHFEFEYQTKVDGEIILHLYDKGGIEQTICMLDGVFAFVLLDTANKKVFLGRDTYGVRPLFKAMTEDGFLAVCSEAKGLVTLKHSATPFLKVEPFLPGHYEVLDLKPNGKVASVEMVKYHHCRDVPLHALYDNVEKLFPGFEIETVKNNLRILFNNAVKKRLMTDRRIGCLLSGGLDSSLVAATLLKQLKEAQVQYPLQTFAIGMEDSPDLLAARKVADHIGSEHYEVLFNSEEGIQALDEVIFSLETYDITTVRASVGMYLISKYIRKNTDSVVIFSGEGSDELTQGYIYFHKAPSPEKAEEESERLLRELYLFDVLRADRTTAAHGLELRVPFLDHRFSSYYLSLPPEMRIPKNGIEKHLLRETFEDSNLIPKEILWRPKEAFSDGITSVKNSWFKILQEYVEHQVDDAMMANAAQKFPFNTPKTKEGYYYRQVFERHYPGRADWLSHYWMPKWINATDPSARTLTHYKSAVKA
UniProt P12270, whole entry: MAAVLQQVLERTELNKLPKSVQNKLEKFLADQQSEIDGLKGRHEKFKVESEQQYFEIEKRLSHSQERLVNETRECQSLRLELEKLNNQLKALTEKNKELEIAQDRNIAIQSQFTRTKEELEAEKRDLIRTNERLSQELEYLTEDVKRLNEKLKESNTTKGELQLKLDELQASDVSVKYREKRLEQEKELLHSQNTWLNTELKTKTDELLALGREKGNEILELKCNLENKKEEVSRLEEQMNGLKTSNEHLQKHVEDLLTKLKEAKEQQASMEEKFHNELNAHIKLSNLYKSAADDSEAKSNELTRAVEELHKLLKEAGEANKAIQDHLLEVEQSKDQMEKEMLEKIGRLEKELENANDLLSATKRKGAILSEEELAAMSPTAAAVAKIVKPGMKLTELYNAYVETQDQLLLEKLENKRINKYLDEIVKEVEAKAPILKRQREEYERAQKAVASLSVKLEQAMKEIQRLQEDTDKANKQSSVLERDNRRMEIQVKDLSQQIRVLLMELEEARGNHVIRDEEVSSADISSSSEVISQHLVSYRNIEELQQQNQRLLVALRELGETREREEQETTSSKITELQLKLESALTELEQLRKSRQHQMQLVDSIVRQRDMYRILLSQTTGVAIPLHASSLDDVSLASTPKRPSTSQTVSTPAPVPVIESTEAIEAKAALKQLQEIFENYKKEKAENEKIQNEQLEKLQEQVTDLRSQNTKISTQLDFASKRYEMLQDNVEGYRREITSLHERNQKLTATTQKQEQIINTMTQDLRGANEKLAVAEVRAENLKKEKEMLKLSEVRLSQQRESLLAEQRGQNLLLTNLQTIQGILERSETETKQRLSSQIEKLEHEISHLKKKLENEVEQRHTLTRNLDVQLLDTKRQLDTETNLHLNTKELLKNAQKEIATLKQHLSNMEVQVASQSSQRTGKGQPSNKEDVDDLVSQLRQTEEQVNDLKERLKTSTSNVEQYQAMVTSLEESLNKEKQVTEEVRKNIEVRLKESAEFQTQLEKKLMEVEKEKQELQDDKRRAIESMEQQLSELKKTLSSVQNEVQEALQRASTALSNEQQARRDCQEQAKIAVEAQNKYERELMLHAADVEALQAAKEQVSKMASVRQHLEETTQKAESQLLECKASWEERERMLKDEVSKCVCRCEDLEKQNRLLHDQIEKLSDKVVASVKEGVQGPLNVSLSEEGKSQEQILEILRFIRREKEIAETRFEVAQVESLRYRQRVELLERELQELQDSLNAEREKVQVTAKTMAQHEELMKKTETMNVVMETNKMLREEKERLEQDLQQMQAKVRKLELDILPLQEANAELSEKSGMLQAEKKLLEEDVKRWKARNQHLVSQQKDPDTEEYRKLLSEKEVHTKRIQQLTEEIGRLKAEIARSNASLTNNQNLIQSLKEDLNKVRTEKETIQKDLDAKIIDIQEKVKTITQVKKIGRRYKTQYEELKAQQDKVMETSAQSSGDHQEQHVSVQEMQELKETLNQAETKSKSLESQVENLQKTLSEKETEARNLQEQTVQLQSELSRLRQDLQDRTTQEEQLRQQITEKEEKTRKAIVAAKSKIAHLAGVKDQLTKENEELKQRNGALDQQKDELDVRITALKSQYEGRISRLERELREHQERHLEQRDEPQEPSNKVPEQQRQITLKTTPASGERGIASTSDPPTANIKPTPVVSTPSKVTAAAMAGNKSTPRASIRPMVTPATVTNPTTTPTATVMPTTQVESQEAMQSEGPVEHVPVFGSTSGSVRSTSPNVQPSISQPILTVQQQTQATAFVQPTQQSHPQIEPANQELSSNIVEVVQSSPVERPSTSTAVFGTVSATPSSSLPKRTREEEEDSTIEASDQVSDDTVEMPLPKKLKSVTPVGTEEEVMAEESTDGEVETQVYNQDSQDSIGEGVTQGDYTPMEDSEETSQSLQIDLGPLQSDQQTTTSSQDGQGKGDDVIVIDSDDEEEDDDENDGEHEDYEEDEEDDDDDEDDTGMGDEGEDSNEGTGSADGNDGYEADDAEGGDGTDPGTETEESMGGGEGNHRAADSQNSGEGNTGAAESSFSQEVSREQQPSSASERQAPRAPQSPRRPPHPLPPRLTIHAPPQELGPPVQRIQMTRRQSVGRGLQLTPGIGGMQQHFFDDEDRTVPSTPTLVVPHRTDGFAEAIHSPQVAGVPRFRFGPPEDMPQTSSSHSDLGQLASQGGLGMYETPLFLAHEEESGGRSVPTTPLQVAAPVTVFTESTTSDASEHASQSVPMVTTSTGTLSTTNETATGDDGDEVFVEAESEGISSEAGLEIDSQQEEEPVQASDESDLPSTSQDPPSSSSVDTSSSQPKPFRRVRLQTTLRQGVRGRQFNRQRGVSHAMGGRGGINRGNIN
UniProt P13674: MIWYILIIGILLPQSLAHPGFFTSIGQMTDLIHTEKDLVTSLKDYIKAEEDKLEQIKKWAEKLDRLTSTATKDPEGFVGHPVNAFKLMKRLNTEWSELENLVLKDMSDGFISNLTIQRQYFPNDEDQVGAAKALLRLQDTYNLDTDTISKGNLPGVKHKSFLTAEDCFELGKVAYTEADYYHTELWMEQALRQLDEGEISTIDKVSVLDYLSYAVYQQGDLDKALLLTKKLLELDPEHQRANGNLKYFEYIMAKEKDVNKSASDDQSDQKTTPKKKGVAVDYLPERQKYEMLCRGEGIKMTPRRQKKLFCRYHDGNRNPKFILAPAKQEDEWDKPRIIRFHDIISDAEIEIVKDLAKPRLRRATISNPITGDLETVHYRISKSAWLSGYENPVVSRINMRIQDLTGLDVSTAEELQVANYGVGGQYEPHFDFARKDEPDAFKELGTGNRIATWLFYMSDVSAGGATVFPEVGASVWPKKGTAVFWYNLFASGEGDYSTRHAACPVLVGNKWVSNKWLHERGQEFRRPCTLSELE
UniProt P0C7P0: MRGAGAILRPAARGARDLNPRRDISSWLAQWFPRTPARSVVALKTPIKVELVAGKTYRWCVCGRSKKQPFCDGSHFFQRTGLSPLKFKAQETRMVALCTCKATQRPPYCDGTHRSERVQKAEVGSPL

Compound: Nc1nc2c(ncn2[C@@H]2O[C@H](COP(=O)(O)OP(=O)(O)OP(=O)(O)O)[C@@H](O)[C@H]2O)c(=O)[nH]1 [guanosine triphosphate]
Assay: NP40-soluble protein abundance relative to vehicle (solubility fold change) (ratio); higher = more soluble protein in presence of GTP
Summary of the method: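 Each value is a fold change relative to the detergent-processed vehicle, calculated per replicate from vsn-normalised intensities. Jurkat crude lysate received eight concentrations (0.1 to 10 mM) for 10 min at room temperature and 3 min at 37 °C, then was solubilised in 0.8% NP40 with benzonase (60 min, 4 °C). The ultracentrifuged supernatant was TMT-labelled and run by LC-MS/MS in three independent experiments.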

Row | Target | NP40-soluble protein abundance (concentration: 0.1mM) | NP40-soluble protein abundance (concentration: 0.5mM) | NP40-soluble protein abundance (concentration: 1mM) | NP40-soluble protein abundance (concentration: 2mM) | NP40-soluble protein abundance (concentration: 4mM) | NP40-soluble protein abundance (concentration: 6mM) | NP40-soluble protein abundance (concentration: 8mM) | NP40-soluble protein abundance (concentration: 10mM)
1 | UniProt P0CAP2 and related entries | 1.04 ± 0.025 | 1.06 ± 0.022 | 1.12 ± 0.054 | 1.12 ± 0.041 | 1.12 ± 0.056 | 1.15 ± 0.062 | 1.19 ± 0.1 | 1.2 ± 0.097
2 | POLR2E (UniProt P19388) | 1.06 ± 0.11 | 1.09 ± 0.11 | 1.15 ± 0.16 | 1.19 ± 0.18 | 1.22 ± 0.18 | 1.19 ± 0.19 | 1.16 ± 0.16 | 1.11 ± 0.16
3 | YY1 (UniProt P25490) | 0.999 ± 0.045 | 1.01 ± 0.045 | 0.961 ± 0.068 | 0.967 ± 0.081 | 0.971 ± 0.081 | 0.944 ± 0.074 | 1.01 ± 0.063 | 1.03 ± 0.081
4 | PFKL (UniProt P17858) | 1.07 ± 0.087 | 1.13 ± 0.15 | 1.06 ± 0.12 | 1.12 ± 0.17 | 1.1 ± 0.15 | 1.09 ± 0.18 | 1.05 ± 0.1 | 1.04 ± 0.13
5 | PRPS2 (UniProt P11908) | 1.03 ± 0.13 | 1.17 ± 0.2 | 1.16 ± 0.27 | 1.26 ± 0.24 | 1.22 ± 0.26 | 1.27 ± 0.29 | 1.26 ± 0.33 | 1.24 ± 0.26
6 | UniProt P18859 and related entries | 0.997 ± 0.054 | 1.06 ± 0.094 | 1.09 ± 0.16 | 1.11 ± 0.15 | 1.03 ± 0.13 | 1.15 ± 0.14 | 1.15 ± 0.35 | 1.12 ± 0.26
7 | ZNF22 (UniProt P17026) | 0.981 ± 0.014 | 1.11 ± 0.11 | 1.09 ± 0.065 | 1.06 ± 0.033 | 1.1 ± 0.012 | 1.1 ± 0.1 | 1.2 ± 0.059 | 1.34 ± 0.13
8 | EEF1B2 (UniProt P24534) | 0.85 ± 0.084 | 0.866 ± 0.059 | 1.01 ± 0.093 | 0.993 ± 0.14 | 1.04 ± 0.23 | 1.01 ± 0.15 | 1.03 ± 0.1 | 1.1 ± 0.21
9 | UniProt P12931 and related entries | 1.05 ± 0.05 | 1.05 ± 0.063 | 0.955 ± 0.018 | 0.9845 ± 0.0092 | 0.905 ± 0.063 | 0.896 ± 0.015 | 0.894 ± 0.052 | 0.837 ± 0.074
10 | UniProt P20340 and related entries | 1.02 ± 0.04 | 0.998 ± 0.034 | 0.935 ± 0.032 | 0.922 ± 0.065 | 0.898 ± 0.08 | 0.891 ± 0.069 | 0.865 ± 0.073 | 0.847 ± 0.13
11 | HARS (UniProt P12081) | 0.957 ± 0.036 | 0.9686 ± 0.0042 | 0.907 ± 0.021 | 0.888 ± 0.019 | 0.871 ± 0.029 | 0.883 ± 0.022 | 0.8654 ± 0.0017 | 0.853 ± 0.036
12 | UniProt P08243 and related entries | 1.02 ± 0.057 | 1.09 ± 0.047 | 0.953 ± 0.034 | 0.979 ± 0.012 | 0.919 ± 0.052 | 0.944 ± 0.015 | 0.947 ± 0.027 | 0.925 ± 0.048
13 | TPR (UniProt P12270) | 0.951 ± 0.07 | 0.976 ± 0.077 | 0.987 ± 0.072 | 0.95 ± 0.093 | 0.963 ± 0.072 | 0.98 ± 0.073 | 1.02 ± 0.061 | 1.04 ± 0.089
14 | UniProt P13674 and related entries | 0.9729 ± 0.0096 | 0.995 ± 0.043 | 0.999 ± 0.023 | 1.01 ± 0.05 | 1.01 ± 0.088 | 1.03 ± 0.034 | 1.06 ± 0.11 | 1.04 ± 0.057
15 | CISD3 (UniProt P0C7P0) | 1.08 ± 0.017 | 1 ± 0.083 | 1.154 ± 0.0099 | 1.13 ± 0.1 | 1.24 ± 0.12 | 1.16 ± 0.16 | 1.17 ± 0.049 | 1.15 ± 0.12

Part of the list above with just NP40-soluble protein abundance (concentration: 4mM) and NP40-soluble protein abundance (concentration: 0.5mM).
Row	Target	NP40-soluble protein abundance (concentration: 4mM)	NP40-soluble protein abundance (concentration: 0.5mM)
8	EEF1B2 (UniProt P24534)	1.04 ± 0.23	0.866 ± 0.059
14	UniProt P13674 and related entries	1.01 ± 0.088	0.995 ± 0.043
